Earlier results in patent publication US20210137948A1, “TREATMENT OF INFECTIONS CAUSED BY NEISSERIA GONOCOCCUS USING A HALOGENATED SALICYLANILIDE” (priority 2018, published 2021).
For at least one compound, name, drawing or mass did not settle the structure.

Assays:
[1] = tested on: Escherichia coli; conditions: Escherichia coli MMX 102/ATCC 25922, range in parentheses; cited from earlier work
[2] = tested on: Pseudomonas aeruginosa; conditions: Pseudomonas aeruginosa MMX 103/ATCC 27853, range in parentheses; cited from earlier work

SMILES	CLSI QC range of MIC [1]	CLSI QC range of MIC [2]
C[C@H]1COc2c(N3CCN(C)CC3)c(F)cc3c(=O)c(C(=O)O)cn1c23 [Levofloxacin]	(0.008 0.06)^1 μg/ml	(0.5-4) μg/ml
C[C@H]1c2cccc(O)c2C(=O)C2=C(O)[C@]3(O)C(=O)C(C(N)=O)=C(O)[C@@H](N(C)C)[C@@H]3[C@@H](O)[C@@H]21 [Doxycycline]	(0.5-2) μg/ml	
